# PubChem BioAssay AID504444 (National Center for Advancing Translational Sciences (NCATS), 2011)
# About 7,500 (2.1%) of roughly 360,000 compounds were called active. The shares of active, inactive and inconclusive entries below differ from those in the screen. Calls come from the whole dose curve; as a rule, active = well fitted inhibition curve with a large enough effect; inconclusive = small, poorly fitted or top-dose-only effect, or effect the other way; inactive = flat fitted curve, though single readings scatter. A potency beside an inconclusive call is a rough fit, not a confirmed value.
# Test: Nrf2 qHTS screen for inhibitors; note: nearly all actives have a fitted effect of over 60% in size
# Settings: A549 ARE-Fluc reporter, luciferase luminescence, 18-24 h; activity change, negative = inhibition: at 46 µM (top of the series)
# Summary of the method: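 A549 ARE_Fluc cells, 5000/well, 5% FBS OPTI-MEM; compounds in dose-response, 18-24 h at 37 °C/5% CO2; CellTiter-Fluor viability read (Ex 405/Em 525), then BugLite luciferase luminescence = Nrf2 activity.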
# % is set by controls: 0 for no effect and ±100 for the full control effect; potency is the fitted concentration of half-maximal effect.
Compound,Potency,"activity change, negative = inhibition"
C/C(=N\NC(=O)COc1ccc(C(C)(C)C)cc1)c1cc2ccccc2o1,"inconclusive: 2.06 µM [activator, full curve]",–
Cc1ccc(C(=O)C[n+]2ccc3ccccc3c2)cc1,"inconclusive: 13 µM [activator, partial curve]",–
CN(CC(=O)Nc1ccc(Cl)c(Cl)c1)C(=O)C12CC3CC(CC(C3)C1)C2,"inconclusive: 32.6 µM [falling, single point]",–
COc1ccc(C(C(=O)NC2CCCCC2)N(C(=O)CCl)c2cccc(Cl)c2)cc1 (stereo not given),"inconclusive: 20.6 µM [falling, partial curve, poor fit]",–
CCc1ccc(S(=O)(=O)N2CCN(C(=O)c3cccnc3)CC2)cc1,"inconclusive: 8.2 µM [falling, partial curve, poor fit]",–
Cc1ccc(NC(=O)CN(C)C(=O)Cn2nnc(-c3ccccc3C)n2)cc1,"inconclusive: 29.1 µM [falling, single point]",–
O=C(NC(=S)Nc1ccccc1[N+](=O)[O-])c1ccccc1,"inconclusive: 13 µM [activator, partial curve]",–
Cc1ccc(-n2c(O)c(C=Nc3ccccc3-c3n[nH]c(=S)[nH]c3=O)c3ccccc3c2=O)c(C)c1,"inconclusive: 18.4 µM [falling, single point]",–
O=c1c2ccccc2nc2ccc(NCc3ccco3)nn12,"inconclusive: 20.6 µM [activator, partial curve]",–
CNc1ccc(Br)cc(C(=O)/C=C/c2ccc3c(c2)OCO3)c1=O,"inconclusive: 25.9 µM [falling, single point]",–
Cn1c(-c2ccc(CN3CCCCC3)o2)nc2ccccc21,"inconclusive: 5.8 µM [activator, full curve]",–
Cc1ccc(CN2CCSc3ccc(C(=O)N4CCN(c5cc(C)ccc5C)CC4)cc32)cc1,"inconclusive: 4.11 µM [falling, full curve, poor fit]",–
CCOc1ccc(NS(=O)(=O)c2ccc(NC(=O)C3CC3)cc2)cc1,"inconclusive: 20.6 µM [falling, single point]",–
CCOc1ccc(C2CC(=O)NC3=C2C(=O)CCC3)cc1Cl (stereo not given),"inconclusive: 9.2 µM [falling, partial curve, poor fit]",–
O=C1OCC(c2ccccc2)=C1c1ccccc1,–,inactive: -9.58%
Cc1c(C(=O)NCc2ccc3c(c2)OCO3)oc2ccc(Br)cc12,"inconclusive: 29.1 µM [activator, single point]",–
c1ccc(-c2nc(N3CCCCC3)nc3ccccc23)cc1,"inconclusive: 29.1 µM [activator, single point]",–
CC1(C)CC2C1CCC1(O)CC2(C)CCC1N(O)c1ccc(C(=O)NCCO)cn1 (stereo not given),"inconclusive: 29.1 µM [falling, single point]",–
O=C1C=CC(O)(c2cc(=O)c3c(O)cc(O)cc3o2)C=C1,"inconclusive: 16.4 µM [falling, single point]",–
Cc1cc(C(=O)N/N=C/c2ccc(C)s2)n[nH]1,"inconclusive: 5.8 µM [activator, full curve]",–

# Two of these compounds, set out differently:
Compound	Potency	activity change, negative = inhibition
O=C(NC(=S)Nc1ccccc1[N+](=O)[O-])c1ccccc1	inconclusive: 13 µM [activator, partial curve]	–
Cc1ccc(-n2c(O)c(C=Nc3ccccc3-c3n[nH]c(=S)[nH]c3=O)c3ccccc3c2=O)c(C)c1	inconclusive: 18.4 µM [falling, single point]	–

# Next structures

Compound,Potency,"activity change, negative = inhibition"
O=C(N/N=C/c1ccccn1)c1cc(-c2ccc(Br)cc2)nc2ccccc12,active: 13 µM,–
O=C(Nc1ccc(-c2csc(Nc3cccc(C(F)(F)F)c3)n2)cc1)c1ccccc1,"inconclusive: 18.4 µM [falling, single point]",–
Cc1cc(=O)oc2c1ccc1oc(/C(=N/O)c3ccccc3)c(C)c12,"inconclusive: 16.4 µM [falling, single point]",–
CCCCc1cc(=O)oc2cc(OCC(=O)N3C[C@H]4C[C@@H](C3)c3cccc(=O)n3C4)ccc12,"inconclusive: 18.4 µM [falling, partial curve, poor fit]",–
Cc1ccccc1C(=O)N1CC(=O)Nc2ccc(F)cc2C1c1ccc(F)cc1 (stereo not given),–,inactive: -11.7%
O=C(NNC1=C(C(=O)C(F)(F)F)CCC1)c1ccccc1O,"inconclusive: 32.6 µM [falling, single point]",–
Cc1nn(C)c(C(=O)NNC(=O)Nc2cccc(C(F)(F)F)c2)c1Cl,"inconclusive: 18.4 µM [falling, single point]",–
COc1ccc(-c2ccc3c(N)c(C(=O)NCc4ccc(Cl)cc4)sc3n2)cc1,–,inactive: -24%
COC(=O)c1c(SC)nc2ccccc2c1OCc1ccccc1C,"inconclusive: 25.9 µM [activator, single point]",–
CN(CCc1ccccc1)C(=O)c1ccc(NC(=O)Cc2ccc([N+](=O)[O-])cc2)cc1,"inconclusive: 29.1 µM [falling, single point]",–
C1=NN(c2ccccc2)C=NN1c1ccccc1,"inconclusive: 4.61 µM [activator, full curve, poor fit]",–
Cc1nc(-c2ccccc2)sc1-c1ccnn1C,"inconclusive: 2.31 µM [activator, partial curve]",–
COc1ccc(C(=O)N(C)C2CCCc3ccccc32)cc1OC1CCN(C(C)C)CC1 (stereo not given),"inconclusive: 8.2 µM [activator, partial curve, poor fit]",–
CNc1snc(C)c1C(=O)OCC(=O)Nc1ccc(C)cc1F,"inconclusive: 14.6 µM [falling, single point]",–
CCN1C(=O)[C@@H]2[C@@H](c3ccc(-c4ccc(F)cc4)cc3)N3CCCC[C@@]3(C(=O)OC)[C@@H]2C1=O,"inconclusive: 20.6 µM [falling, single point]",–
O=C1c2ccccc2C(=O)N1CCC(=O)N1CCCc2ccccc21,"inconclusive: 0.231 µM [activator, full curve, poor fit]",–
Cc1ccc2oc(C(=O)N3CCN(c4cccc(C)n4)CC3)c(C)c2c1,"inconclusive: 2.59 µM [activator, partial curve, poor fit]",–
NS(=O)(=O)c1ccc(CCNCc2cc(Cl)ccc2OCc2ccccc2)cc1,"inconclusive: 18.4 µM [falling, single point]",–
O=C(Nc1ccc(F)cc1)c1c(Cl)nc2ccccn12,"inconclusive: 10.3 µM [activator, partial curve]",–
COc1ccc(F)cc1CSc1nnnn1-c1ccc(O)cc1,–,inactive: 8.38%
